Results reported in paper PMC7803970.
These are yes or no findings as the source states them, for the method shown. In cells and extracts the contact can be indirect. Here binding means that the protein was enriched with, or labelled near, the bait; the list need not be complete.

Sequences of proteins named here, by UniProt entry; tags and fusion partners are left off.
UniProt Q8R4B8: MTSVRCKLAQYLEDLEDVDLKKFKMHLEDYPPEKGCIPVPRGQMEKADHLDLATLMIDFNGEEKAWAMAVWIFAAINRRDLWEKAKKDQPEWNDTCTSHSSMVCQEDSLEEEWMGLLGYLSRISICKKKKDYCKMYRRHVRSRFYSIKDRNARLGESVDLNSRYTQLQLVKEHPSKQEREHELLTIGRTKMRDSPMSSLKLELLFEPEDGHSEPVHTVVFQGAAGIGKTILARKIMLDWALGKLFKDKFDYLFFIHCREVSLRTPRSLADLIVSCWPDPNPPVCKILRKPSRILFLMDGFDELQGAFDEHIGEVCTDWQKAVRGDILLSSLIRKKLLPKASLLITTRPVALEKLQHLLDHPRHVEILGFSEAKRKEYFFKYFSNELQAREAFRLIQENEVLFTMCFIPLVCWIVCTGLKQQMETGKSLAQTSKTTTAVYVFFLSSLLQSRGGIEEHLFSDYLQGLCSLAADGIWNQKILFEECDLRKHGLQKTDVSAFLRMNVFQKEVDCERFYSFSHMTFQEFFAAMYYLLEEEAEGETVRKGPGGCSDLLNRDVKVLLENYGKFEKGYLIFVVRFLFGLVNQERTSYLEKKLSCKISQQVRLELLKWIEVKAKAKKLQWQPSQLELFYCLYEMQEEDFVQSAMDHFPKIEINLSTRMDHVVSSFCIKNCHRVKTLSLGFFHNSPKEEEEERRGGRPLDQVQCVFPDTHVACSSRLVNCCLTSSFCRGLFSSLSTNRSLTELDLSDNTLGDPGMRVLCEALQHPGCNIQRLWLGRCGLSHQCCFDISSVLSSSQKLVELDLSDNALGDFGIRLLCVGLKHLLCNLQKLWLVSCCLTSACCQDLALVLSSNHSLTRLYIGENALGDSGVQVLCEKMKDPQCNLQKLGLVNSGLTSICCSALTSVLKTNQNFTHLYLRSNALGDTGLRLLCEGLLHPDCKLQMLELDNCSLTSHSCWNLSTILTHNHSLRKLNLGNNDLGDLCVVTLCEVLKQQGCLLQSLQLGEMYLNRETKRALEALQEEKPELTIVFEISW

Target: T1, G protein-coupled receptor 120 (mouse (endogenous in Kupffer cell line BNCC340733)) (UniProt Q7TMA4)
T1 sequence: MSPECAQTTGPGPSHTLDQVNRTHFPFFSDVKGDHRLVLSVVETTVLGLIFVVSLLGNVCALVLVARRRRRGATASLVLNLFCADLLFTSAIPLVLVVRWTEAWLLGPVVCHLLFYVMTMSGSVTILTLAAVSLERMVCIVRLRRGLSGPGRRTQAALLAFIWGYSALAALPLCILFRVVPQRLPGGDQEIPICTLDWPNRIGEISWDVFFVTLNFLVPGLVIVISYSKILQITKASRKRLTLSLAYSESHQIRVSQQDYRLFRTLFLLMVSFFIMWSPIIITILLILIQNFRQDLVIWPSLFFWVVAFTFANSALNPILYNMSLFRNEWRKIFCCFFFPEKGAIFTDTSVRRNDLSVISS
Assay: affinity purification with mass spectrometry; immunoprecipitation of endogenous GPR120 from Kupffer cells treated or not with 100 ng/mL LPS for 12 h; precipitate analysed by LC-MS/MS

binding: binds
Substance: NOD-like receptor pyrin domain-containing protein 3 (from UniProt Q8R4B8 1-1033)
